Results taken from patent US20140256754A1, “QUINAZOLINES AS B-GLUCURONIDASE NOVEL INHIBITORS” (priority 2013, published 2014).
Some results were stated once for a whole list of compounds, not compound by compound.

Each compound was assayed on PC-3 cells (assay: MTT cytotoxicity assay against PC-3 cells).

SMILES | cytotoxicity towards PC-3 cells, result in words
O=c1[nH]c(-c2ccccc2O)nc2ccccc12 [Compound 2, 2-(2-Hydroxyphenyl)quinazolin-4(3H)-one] | no cytotoxicity effects
O=c1[nH]c(-c2ccc(O)cc2)nc2ccccc12 [Compound 3, 2-(4-Hydroxyphenyl)quinazolin-4(3H)-one] | no cytotoxicity effects
O=c1[nH]c(-c2cccc(O)c2)nc2ccccc12 [Compound 4, 2-(3-Hydroxyphenyl)quinazolin-4(3H )-one] | no cytotoxicity effects
O=c1[nH]c(-c2ccc(O)c(O)c2)nc2ccccc12 [Compound 5, 2-(3,4-Dihydroxyphenyl)quinazolin-4(3H)-one] | no cytotoxicity effects
O=c1[nH]c(-c2cc(O)ccc2O)nc2ccccc12 [Compound 6, 2-(2,5-Dihydroxyphenyl)quinazolin-4(3H)-one] | no cytotoxicity effects
COc1ccc(O)c(-c2nc3ccccc3c(=O)[nH]2)c1 [Compound 7, 2-[2-Hydroxy-5-(methyloxy)phenyl]quinazolin-4(3H)-one] | no cytotoxicity effects
COc1ccc(-c2nc3ccccc3c(=O)[nH]2)cc1O [Compound 8, 2-[3-Hydroxy-4-(methyloxy)phenyl]quinazolin-4(3H)-one] | no cytotoxicity effects
COc1ccc(-c2nc3ccccc3c(=O)[nH]2)cc1 [Compound 10, 2-[4-(Methyloxy)phenyl]quinazolin-4(3H)-one] | no cytotoxicity effects
COc1ccc(-c2nc(O)c3ccccc3n2)cc1OC [Compound 11, 2-[3,4-Bis(methyloxy)phenyl]quinazolin-4(3H)-one] | no cytotoxicity effects
COc1cc(-c2nc3ccccc3c(=O)[nH]2)cc(OC)c1OC [Compound 12, 2-[3,4,5-Tris(methyloxy)phenyl]quinazolin-4(3H)-one] | no cytotoxicity effects
CCOc1ccc(-c2nc3ccccc3c(=O)[nH]2)cc1 [Compound 13, 2-[4-(Ethyloxy)phenyl]quinazolin-4(3H)-one] | no cytotoxicity effects
CCOc1ccccc1-c1nc2ccccc2c(=O)[nH]1 [Compound 14, 2-[2-(Ethyloxy)phenyl]quinazolin-4(3H)-one] | no cytotoxicity effects
CCOc1cc(-c2nc3ccccc3c(=O)[nH]2)ccc1O [Compound 15, 2-[3-(Ethyloxy)-4-hydroxyphenyl]quinazolin-4(3H)-one] | no cytotoxicity effects
O=c1[nH]c(-c2ccccc2Cl)nc2ccccc12 [Compound 16, 2-(2-Chlorophenyl)quinazolin-4(3H)-one] | no cytotoxicity effects
O=c1[nH]c(-c2ccc(Cl)cc2Cl)nc2ccccc12 [Compound 17, 2-(2,4-Dichlorophenyl)quinazolin-4(3H)-one] | no cytotoxicity effects
O=c1[nH]c(-c2c(Cl)cccc2Cl)nc2ccccc12 [Compound 18, 2-(2,6-Dichlorophenyl)quinazolin-4(3H)-one] | no cytotoxicity effects
O=c1[nH]c(-c2ccc(Cl)cc2)nc2ccccc12 [Compound 19, 2-(4-Chlorophenyl)quinazolin-4(3H)-one] | no cytotoxicity effects
O=c1[nH]c(-c2ccccc2[N+](=O)[O-])nc2ccccc12 [Compound 20, 2-(2-Nitrophenyl)quinazolin-4(3H)-one] | no cytotoxicity effects
O=c1[nH]c(-c2cccc([N+](=O)[O-])c2)nc2ccccc12 [Compound 21, 2-(3-Nitrophenyl)quinazolin-4(3H)-one] | no cytotoxicity effects
O=c1[nH]c(-c2ccc([N+](=O)[O-])cc2)nc2ccccc12 [Compound 22, 2-(4-Nitrophenyl)quinazolin-4(3H)-one] | no cytotoxicity effects
CN(C)c1ccc(-c2nc(O)c3ccccc3n2)cc1 [Compound 23, 2-[4-(Dimethylamino)phenyl]quinazolin-4(3H)-one] | no cytotoxicity effects
Cc1ccc(-c2nc3ccccc3c(=O)[nH]2)cc1 [Compound 24, 2-(4-Methylphenyl)quinazolin-4(3H)-one] | no cytotoxicity effects
O=c1[nH]c(-c2c(O)cccc2Br)nc2ccccc12 [Compound 25, 2-(2-Bromo-6-hydroxyphenyl)quinazolin-4(3H)-one] | no cytotoxicity effects
